# Measurements: PubChem BioAssay (NCATS)
# “And” between values parts separate entries of the source, which are not always exact repeats. Equal entries are not always repeated. The list shows a part of the results. The main result of the screen is listed elsewhere. These columns were measured beside it and carry no call. For some of these results: Compounds called inactive in the main read-out are mostly missing here. Potencies come from curve fits of mixed quality, noted in brackets.
# Columns and labels:
# [1] = Validation of Assay for Modulators of Lamin A Splicing (AID 1459); details: Lamin A splicing dual RFP/GFP fluorescence reporter, ratio
# Summary of the method: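 Dual-reporter HeLa S3 line (lamin A-EGFP minigene, DsRed2) treated with compounds 48 hrs, 0.5% DMSO final. Endpoint: EGFP/DsRed2 total intensity ratio from laser-scanning microplate cytometry.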
# [2] = qHTS Assay for Lipid Storage Modulators (AID 1519); details: Drosophila S3 cells, BODIPY lipid droplet/cell ratio, laser cytometry, cells loaded with oleic acid
# Summary of the method: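 Cells seeded at 5,000 per well were treated with compounds over a concentration series and loaded with oleic acid (400 uM, as added). Lipid droplet fluorescence (488 nm excitation, 500-530 nm channel) was read by laser-scanning cytometry and normalized to 20 uM Triacsin C.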
# [3] = qHTS Assay for Modulators of Human Peripheral Myelin Protein 22 (PMP22) Expression/Activity (AID 1967); details: Cell-based PMP22 reporter, dual-color luciferase ratio
# Summary of the method: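 Engineered MSC80 cells, Pmp22-promoter green and EF-alpha red luciferase reporters; 24h compound treatment at 37 °C. Concentration-response fits on green, red and ratio signals, each overlap-corrected, with %Activity normalized to untreated wells.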
# [4] = qHTS Validation Assay to Find Inhibitors of Chronic Active B-Cell Receptor Signaling (AID 485345); details: ABC-DLBCL cells, chronic BCR signaling reporter
# Summary of the method: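 TMD8 ABC-DLBCL cells stably carrying doxycycline-inducible IkappaBalpha–green luciferase fusion plus unfused red luciferase; compounds 46 uM to 3 nM, 4 h at 37C with doxycycline. Corrected green/red luminescence ratio normalized to 10 uM MG-132 and basal cell wells; curves fitted.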
# [5] = Nrf2 qHTS screen for inhibitors: Validation (AID 493153); details: A549 ARE-Fluc reporter, 18-24 h; AC50: CellTiter-Fluor fluorescence read, measured here: cytotoxicity CellTiter-Fluor AC50; viability change: measured here: cytotoxicity max response
# Summary of the method: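 Concentration-response test in A549 ARE_Fluc reporter cells (5% FBS OPTI-MEM), compound exposure 18-24 h at 37°C, 5% CO2. Cell viability measured first by CellTiter-Fluor fluorescence; ARE-driven luciferase luminescence then measured as Nrf2 activity.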
# [6] = A High-Content qHTS Against Drug Library for the Identification of Small Molecules that Inhibit DYT1 Early Onset Primary Dystonia-Associated Cell Pathology (AID 1645839); details: HEK293 Flp-In EGFP-delE TorsinA, punctate imaging, 48 h; measured here: cell count cytotoxicity
# Summary of the method: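 Cells were seeded and left for 24 h, then dosed with compound alongside tetracycline induction of mutant EGFP-TorsinA. They were incubated for 48 h, fixed in 4% paraformaldehyde, permeabilized and imaged for mislocalization (%pathology) and cell count.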
# [7] = qHTS Assay for Inhibitors of PDE-IV (AID 607); details: HEK293 ACTOne CNG channel cells, membrane potential fluorescence; measured here: parental cell counter-screen
# Summary of the method: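 Live HEK293 cells with a modified cyclic nucleotide-gated (CNG) channel report intracellular cAMP via membrane-potential dye fluorescence (ex 535/em 590 nm). Endogenous PDE-IV was targeted. Compounds were tested at up to 22.9 uM final; RO 20-1724 100 uM served as control.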
# [8] = qHTS drug screen for cell cycle checkpoint inhibitors in PARPi-resistant BRCA-mutant ovarian cancer cell lines. (AID 1963452); details: PEO1/OlaR viability, CellTiter-Glo luminescence, 96 h; measured here: PEO1 parental viability
# Summary of the method: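 PEO1, PEO4 and PEO1/OlaR ovarian cancer cells, 600 per well, exposed 96 h at 37C to a dilution series. Viability read by CellTiter-Glo luminescence, normalized to DMSO and empty wells; activity summarized as Z-AUC.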
# [9] = measured here: cell count channel max response
# [10] = measured here: cell number channel AC50
# [11] = measured here: lipid (BODIPY) channel AC50
# [12] = measured here: lipid channel max response
# [13] = measured here: green reporter channel AC50, mouse Pmp22 promoter in mouse Schwann cells
# [14] = measured here: red reporter channel AC50, EF-alpha promoter control reporter in MSC80 mouse Schwann cells
# [15] = measured here: CBR control luciferase (viability counter)
# [16] = measured here: CBG/CBR ratio read-out
Compound,AC50 ([1]; measured here: GFP channel),AC50 ([1]; measured here: RFP channel),"max response [2, 9]","AC50 [2, 10]","AC50 [2, 11]","max response [2, 12]","AC50 [3, 13]","AC50 [3, 14]","AC50 [4, 15]",AC50 [5],viability change [5],"AC50 [4, 16]",AC50 [6],AC50 [7],AC50 [8]
CC12C(=O)OC(=O)C1(C)C1CCC2O1 (stereo not drawn),"3.55 µM [falling, full curve]","4.47 µM [falling, full curve]",-28.9% and -53.7%,"316 nM [falling, full curve, poor fit] and 7.08 µM [falling, full curve, poor fit]","3.55 µM [falling, partial curve, poor fit] and 7.94 µM [falling, full curve, poor fit]",-56.8% and -55%,"21.3 µM [falling, full curve]","21.3 µM [falling, full curve]","11.6 µM [rising, partial curve]","1.84 µM [falling, full curve]",-40%,,,,
COC(=O)C1=C(C)NC(C)=C(C(=O)OCCN(C)Cc2ccccc2)C1c1cccc([N+](=O)[O-])c1 (stereo not drawn),"35.5 µM [falling, single point]","20 µM [falling, partial curve]",-5.75%,,"0.355 µM [rising, full curve, poor fit]",11%,"60.1 µM [falling, partial curve]","47.8 µM [falling, partial curve]","8.2 µM [falling, single point]",,,"18.4 µM [falling, partial curve]","12.6 µM [falling, single point]",,
CC1=NS(=O)(=O)c2cc(Cl)ccc2N1,"3.55 µM [falling, single point]","3.55 µM [falling, single point]",83.2% and -17.7%,"28.2 µM [rising, partial curve, poor fit]","31.6 µM [rising, partial curve, poor fit]",113% and -18.5%,,,,,,,,"15.8 µM [rising, partial curve, poor fit]",
Cc1c(C)c2c(c(C)c1O)CCC(C)(CN1CCN(c3cc(N4CCCC4)nc(N4CCCC4)n3)CC1)O2 (stereo not drawn),"3.55 µM [falling, single point]","22.4 µM [falling, partial curve]",-82.1%,,"44.7 µM [falling, partial curve, poor fit]",-103%,"33.8 µM [falling, full curve]","30.1 µM [falling, full curve]",,,,,,,
CN1CCc2cccc3c2C1Cc1ccc(O)c(O)c1-3 (stereo not drawn),"22.4 µM [falling, single point]","22.4 µM [falling, partial curve]",22.9% and 56.7%,,"35.5 µM [rising, single point] and 15.8 µM [rising, partial curve, poor fit]",40.5% and 58.6%,"30.1 µM [falling, full curve]","37.9 µM [falling, full curve]","29.1 µM [falling, single point]",,,"16.4 µM [falling, partial curve]",,,
O=C1Nc2ccc(I)cc2/C1=C/c1cc(Br)c(O)c(Br)c1,"20 µM [falling, single point]","14.1 µM [falling, partial curve]",70.8% and -18.3%,"12.6 µM [rising, partial curve]","12.6 µM [rising, partial curve]",100% and -16.3%,"47.8 µM [falling, partial curve]","37.9 µM [falling, full curve]","16.4 µM [falling, single point]","13 µM [falling, single point]",-35.7%,,,,"12.3 µM [falling, single point]"
Cc1ccc(O)c(N=Nc2ccccc2)n1,"22.4 µM [falling, single point]","10 µM [falling, partial curve]",75.3% and 64%,"35.5 µM [rising, partial curve, poor fit]","35.5 µM [rising, partial curve, poor fit]",100% and 66.3%,"3.01 µM [rising, full curve]",,,,,,,,
Nc1ncnc2c1c(-c1ccc(Oc3ccccc3)cc1)cn2C1CCCC1,"10 µM [rising, partial curve]","10 µM [rising, partial curve]",-91.2%,,"3.55 µM [falling, full curve, poor fit]",-107%,"16.9 µM [falling, full curve]","9.53 µM [falling, full curve]","0.231 µM [falling, full curve]",,2.35%,"7.31 µM [falling, partial curve]",,,
